Reference: paper PMC9527062
No constants are given. Whether binding was seen depends on the method and setting. Binding seen in cells or lysates may run through a third protein. A result given as binding can be weak or reduced; the word gives no strength. For some assays here: Tags and fused reporters may be left off the sequences shown.

By UniProt entry, the sequences of proteins in these tests, tags left out. Where a name states a change or a piece, a line headed by the entry shows the natural chain unless it says otherwise. Residues count along the entry.
UniProt Q6IA17: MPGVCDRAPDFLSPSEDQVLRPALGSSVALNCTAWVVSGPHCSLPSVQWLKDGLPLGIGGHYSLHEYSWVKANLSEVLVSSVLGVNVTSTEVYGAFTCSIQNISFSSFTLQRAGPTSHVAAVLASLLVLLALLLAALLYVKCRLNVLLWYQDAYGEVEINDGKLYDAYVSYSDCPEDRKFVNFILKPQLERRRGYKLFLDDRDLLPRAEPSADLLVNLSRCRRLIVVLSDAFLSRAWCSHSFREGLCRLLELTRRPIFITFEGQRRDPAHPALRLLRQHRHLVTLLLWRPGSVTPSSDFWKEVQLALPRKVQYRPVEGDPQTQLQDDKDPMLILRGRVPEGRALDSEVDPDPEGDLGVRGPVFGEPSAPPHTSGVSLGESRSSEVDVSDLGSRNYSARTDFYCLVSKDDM
UniProt P25705, residues 44-553: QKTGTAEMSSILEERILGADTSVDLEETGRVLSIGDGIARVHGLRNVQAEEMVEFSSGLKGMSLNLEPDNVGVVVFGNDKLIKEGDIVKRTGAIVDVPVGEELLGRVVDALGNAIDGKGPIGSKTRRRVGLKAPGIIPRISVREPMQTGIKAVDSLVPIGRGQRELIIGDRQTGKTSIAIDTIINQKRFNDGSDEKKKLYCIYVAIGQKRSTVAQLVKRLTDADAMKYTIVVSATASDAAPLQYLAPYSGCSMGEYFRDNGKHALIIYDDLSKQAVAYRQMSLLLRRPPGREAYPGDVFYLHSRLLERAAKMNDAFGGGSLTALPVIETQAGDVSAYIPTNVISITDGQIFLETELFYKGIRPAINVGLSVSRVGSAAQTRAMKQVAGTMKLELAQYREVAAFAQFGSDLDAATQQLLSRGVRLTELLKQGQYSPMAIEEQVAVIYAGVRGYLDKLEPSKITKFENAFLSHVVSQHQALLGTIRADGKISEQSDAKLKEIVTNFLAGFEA

Key:
[1] = target: endogenous SIGIRR of HCT116 cells (predominantly SIGIRR^ΔE8) (human (endogenous in HCT116)) (UniProt Q6IA17); assay: co-IP; endogenous SIGIRR immunoprecipitated from HCT116 and HT-29 cell lysates; Western blot for ATP5A1 and SIGIRR
[2] = target: M2 flag-tagged SIGIRR^ΔE8 (human); assay: co-IP; HeLa cells cotransfected with the myc-tagged partner and M2 flag-tagged SIGIRR forms; lysates (0.5% Triton X-100, 50 mM Tris-HCl pH 7.4, 150 mM NaCl) immunoprecipitated with anti-FLAG antibody and protein A/G beads overnight at 4°C; Western blot

With “alpha subunit of adenosine triphosphate (ATP) synthase (ATP5A1), endogenous (from UniProt P25705 44-553)” the binding [1] was “binds”.

B1: myc-tagged ribophorin 1 (RPN1) (protein, UniProt P04843 24-607)
chain: ASSEAPPLINEDVKRTVDLSSHLAKVTAEVVLAHLGGGSTSRATSFLLALEPELEARLAHLGVQVKGEDEEENNLEVRETKIKGKSGRFFTVKLPVALDPGAKISVIVETVYTHVLHPYPTQITQSEKQFVVFEGNHYFYSPYPTKTQTMRVKLASRNVESYTKLGNPTRSEDLLDYGPFRDVPAYSQDTFKVHYENNSPFLTITSMTRVIEVSHWGNIAVEENVDLKHTGAVLKGPFSRYDYQRQPDSGISSIRSFKTILPAAAQDVYYRDEIGNVSTSHLLILDDSVEMEIRPRFPLFGGWKTHYIVGYNLPSYEYLYNLGDQYALKMRFVDHVFDEQVIDSLTVKIILPEGAKNIEIDSPYEISRAPDELHYTYLDTFGRPVIVAYKKNLVEQHIQDIVVHYTFNKVLMLQEPLLVVAAFYILFFTVIIYVRLDFSITKDPAAEARMKVACITEQVLTLVNKRIGLYRHFDETVNRYKQSRDISTLNSGKKSLETEHKALTSEIALLQSRLKTEGSDLCDRVSEMQKLDAQVKELVLKSAVEAERLVAGKLKKDTYIENEKLISGKRQELVTKIDHILDAL
With B1 the binding [2] was “binds”.
